No constants are given. Whether binding was seen depends on the method and setting. Binding seen in cells or lysates may run through a third protein. A yes stands for co-enrichment or nearness to the bait. Other partners may have been found. For some assays here: Tags and fused reporters may be left off the sequences shown.
T1: OPNR-YFP (Arabidopsis thaliana) (UniProt Q6NPG7)
T1 sequence: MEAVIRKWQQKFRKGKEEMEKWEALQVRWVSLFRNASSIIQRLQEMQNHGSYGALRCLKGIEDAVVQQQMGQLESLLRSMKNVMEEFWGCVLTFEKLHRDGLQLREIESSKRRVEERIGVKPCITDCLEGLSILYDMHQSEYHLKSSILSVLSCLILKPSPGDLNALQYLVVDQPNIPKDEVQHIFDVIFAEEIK

The chains behind the UniProt entries cited, without tags or fusion partners. Where a name states a change or a piece, a line headed by the entry shows the natural chain unless it says otherwise.
UniProt F4K9I8: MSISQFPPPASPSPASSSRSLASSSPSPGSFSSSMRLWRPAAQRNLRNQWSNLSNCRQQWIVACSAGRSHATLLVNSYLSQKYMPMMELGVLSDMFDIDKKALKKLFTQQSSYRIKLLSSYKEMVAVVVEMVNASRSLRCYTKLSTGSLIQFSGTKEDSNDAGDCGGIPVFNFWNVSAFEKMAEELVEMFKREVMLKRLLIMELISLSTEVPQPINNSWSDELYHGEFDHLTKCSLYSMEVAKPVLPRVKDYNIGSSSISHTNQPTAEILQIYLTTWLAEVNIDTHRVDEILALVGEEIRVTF
UniProt Q9ZPR1: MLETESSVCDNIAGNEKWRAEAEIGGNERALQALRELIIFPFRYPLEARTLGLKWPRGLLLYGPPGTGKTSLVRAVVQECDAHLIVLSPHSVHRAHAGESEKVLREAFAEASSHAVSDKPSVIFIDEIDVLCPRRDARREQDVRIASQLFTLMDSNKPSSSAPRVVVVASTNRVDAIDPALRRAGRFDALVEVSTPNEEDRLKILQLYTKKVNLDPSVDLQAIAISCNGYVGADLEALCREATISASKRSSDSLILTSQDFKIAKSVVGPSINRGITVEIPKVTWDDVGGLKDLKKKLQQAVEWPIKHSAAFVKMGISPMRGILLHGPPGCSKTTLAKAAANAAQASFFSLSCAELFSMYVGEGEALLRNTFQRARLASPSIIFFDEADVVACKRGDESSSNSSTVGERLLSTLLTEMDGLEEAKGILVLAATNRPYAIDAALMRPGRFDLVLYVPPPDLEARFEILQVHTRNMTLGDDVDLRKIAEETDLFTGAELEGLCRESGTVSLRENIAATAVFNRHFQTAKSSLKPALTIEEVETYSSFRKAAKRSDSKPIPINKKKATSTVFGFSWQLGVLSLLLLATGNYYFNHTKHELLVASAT

T2: YFP-CIP111 (Arabidopsis thaliana) (UniProt Q9LET7)
T2 sequence: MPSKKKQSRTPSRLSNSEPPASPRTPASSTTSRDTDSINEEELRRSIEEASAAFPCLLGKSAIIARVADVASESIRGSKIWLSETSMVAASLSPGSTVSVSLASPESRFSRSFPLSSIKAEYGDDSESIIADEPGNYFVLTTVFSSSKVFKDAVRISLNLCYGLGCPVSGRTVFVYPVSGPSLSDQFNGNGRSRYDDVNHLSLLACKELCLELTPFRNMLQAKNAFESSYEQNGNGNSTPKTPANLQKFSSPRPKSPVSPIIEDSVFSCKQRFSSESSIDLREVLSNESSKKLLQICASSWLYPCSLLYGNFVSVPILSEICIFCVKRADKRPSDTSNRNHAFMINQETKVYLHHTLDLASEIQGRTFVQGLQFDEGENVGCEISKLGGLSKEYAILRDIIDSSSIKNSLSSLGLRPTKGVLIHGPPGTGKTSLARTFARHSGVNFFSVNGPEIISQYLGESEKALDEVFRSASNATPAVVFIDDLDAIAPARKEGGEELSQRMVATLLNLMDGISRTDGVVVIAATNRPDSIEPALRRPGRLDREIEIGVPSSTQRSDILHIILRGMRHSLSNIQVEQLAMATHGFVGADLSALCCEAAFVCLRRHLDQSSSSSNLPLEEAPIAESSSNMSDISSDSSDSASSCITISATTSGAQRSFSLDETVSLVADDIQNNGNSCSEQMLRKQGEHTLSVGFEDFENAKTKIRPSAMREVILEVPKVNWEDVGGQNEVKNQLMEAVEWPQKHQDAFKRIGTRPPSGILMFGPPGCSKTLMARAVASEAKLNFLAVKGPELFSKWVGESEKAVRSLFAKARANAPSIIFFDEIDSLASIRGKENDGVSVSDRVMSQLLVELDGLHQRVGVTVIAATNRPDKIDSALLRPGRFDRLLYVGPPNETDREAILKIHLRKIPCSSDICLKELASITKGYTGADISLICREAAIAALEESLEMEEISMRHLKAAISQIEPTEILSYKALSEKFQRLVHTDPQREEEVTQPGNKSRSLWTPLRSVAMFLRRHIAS


Assays:
[1] = target: T1, OPNR-YFP (Arabidopsis thaliana); assay: affinity purification with mass spectrometry; GFP-Trap-MA beads, total proteins of Arabidopsis calli of YFP fusion lines against free YFP; 50 mM Tris pH 7.5, 150 mM NaCl, 1 mM EDTA, 0.5% Triton X-100, 0.5% IGEPAL CA-630, 10% glycerol; 30 min at 4 °C
[2] = target: T2, YFP-CIP111 (Arabidopsis thaliana); assay: as above
[3] = target: OAP1-YFP (Arabidopsis thaliana) (UniProt F4K9I8); assay: as above
[4] = target: TurboID-YFP-CDC48D (Arabidopsis thaliana) (UniProt Q9ZPR1); assay: proximity labelling; TurboID; calli with 50 µM biotin for 3 h, mitochondria isolated, proteins bound to streptavidin Dynabeads, mass spectrometry; TurboID-YFP-CDC48D against TurboID-YFP
[5] = target: TurboID-YFP-CDC48D (Arabidopsis thaliana) (UniProt Q9ZPR1); assay: affinity purification with mass spectrometry; GFP-Trap-MA beads, proteins extracted from the mitochondria enriched pellet of biotin treated callus expressing TurboID-YFP-CDC48D against TurboID-YFP
[6] = target: YFP-CDC48D (Arabidopsis thaliana) (UniProt Q9ZPR1); assay: affinity purification with mass spectrometry; GFP-Trap-MA beads, total proteins of Arabidopsis calli of YFP fusion lines against free YFP; 50 mM Tris pH 7.5, 150 mM NaCl, 1 mM EDTA, 0.5% Triton X-100, 0.5% IGEPAL CA-630, 10% glycerol; 30 min at 4 °C

Molecule	binding [1]	binding [2]	binding [3]	binding [4]	binding [5]	binding [6]
OPENER ASSOCIATED PROTEIN 2 (OAP2)	binds	binds	–	–	–	–
Cell Division Cycle 48 D (CDC48D) (from UniProt Q9ZPR1) (enzyme)	binds	binds	binds	–	–	–
OPENER (OPNR) (protein, UniProt Q6NPG7 1-195) MEAVIRKWQQKFRKGKEEMEKWEALQVRWVSLFRNASSIIQRLQEMQNHGSYGALRCLKGIEDAVVQQQMGQLESLLRSMKNVMEEFWGCVLTFEKLHRDGLQLREIESSKRRVEERIGVKPCITDCLEGLSILYDMHQSEYHLKSSILSVLSCLILKPSPGDLNALQYLVVDQPNIPKDEVQHIFDVIFAEEIK	–	binds	binds	binds	binds	binds

Further lines, results first:

binding [1]	binding [2]	binding [3]	binding [4]	binding [5]	binding [6]	Molecule
binds	binds	–	–	–	–	OPENER ASSOCIATED PROTEIN 1 (OAP1)
binds	–	binds	binds	binds	binds	Calmodulin-interacting protein 111 (CIP111) (enzyme, UniProt Q9LET7 1-1022) MPSKKKQSRTPSRLSNSEPPASPRTPASSTTSRDTDSINEEELRRSIEEASAAFPCLLGKSAIIARVADVASESIRGSKIWLSETSMVAASLSPGSTVSVSLASPESRFSRSFPLSSIKAEYGDDSESIIADEPGNYFVLTTVFSSSKVFKDAVRISLNLCYGLGCPVSGRTVFVYPVSGPSLSDQFNGNGRSRYDDVNHLSLLACKELCLELTPFRNMLQAKNAFESSYEQNGNGNSTPKTPANLQKFSSPRPKSPVSPIIEDSVFSCKQRFSSESSIDLREVLSNESSKKLLQICASSWLYPCSLLYGNFVSVPILSEICIFCVKRADKRPSDTSNRNHAFMINQETKVYLHHTLDLASEIQGRTFVQGLQFDEGENVGCEISKLGGLSKEYAILRDIIDSSSIKNSLSSLGLRPTKGVLIHGPPGTGKTSLARTFARHSGVNFFSVNGPEIISQYLGESEKALDEVFRSASNATPAVVFIDDLDAIAPARKEGGEELSQRMVATLLNLMDGISRTDGVVVIAATNRPDSIEPALRRPGRLDREIEIGVPSSTQRSDILHIILRGMRHSLSNIQVEQLAMATHGFVGADLSALCCEAAFVCLRRHLDQSSSSSNLPLEEAPIAESSSNMSDISSDSSDSASSCITISATTSGAQRSFSLDETVSLVADDIQNNGNSCSEQMLRKQGEHTLSVGFEDFENAKTKIRPSAMREVILEVPKVNWEDVGGQNEVKNQLMEAVEWPQKHQDAFKRIGTRPPSGILMFGPPGCSKTLMARAVASEAKLNFLAVKGPELFSKWVGESEKAVRSLFAKARANAPSIIFFDEIDSLASIRGKENDGVSVSDRVMSQLLVELDGLHQRVGVTVIAATNRPDKIDSALLRPGRFDRLLYVGPPNETDREAILKIHLRKIPCSSDICLKELASITKGYTGADISLICREAAIAALEESLEMEEISMRHLKAAISQIEPTEILSYKALSEKFQRLVHTDPQREEEVTQPGNKSRSLWTPLRSVAMFLRRHIAS
